# This is one part of the list.
# B1: PX9937I-bfa-538-26-538 (Bacteroides fragilis) (protein)
# chain: DKLDLSPIDYYGSGSYWKTEAQATAYIDGIHKHLRDAAWQHTITFGELRGGRFITGASSDGMGVSNGDIILQNFDETHTGVSKFGDLFGRITNLNLFIARVTDATYLSDEMKNFYLGEVYGLRAFYYFDLYRIYGGVPLRLTADVVEGVIDPNKLYMARSTPKEVMTQIKSDLNKSMEYFGNMNDFDPYKRGKKVYWSKAATECLMGEVYLWTSKVTTGDDVANPADLTIAKTHLESVLNNYNLKMLDDFSQVFNAKNKANDEIIFAIRFLEGEATNSNGTFTYNVGTGSTKNRYQANGEVFGDALDIQNTGNQTYEYNKAVYQNFDDADTRKEATFIASYNKDGKTGELSLYGTHVRKNIGYVNAQGARVYCGDYIFYRLPWVYLTLAEIANMEGDNAAVAKYINLVRKRAYGNAWDETLYAYPETADFTTNELAILHEKDKEFIQEGQRWWDLRRMTLTKGGTPLVFCKEGSLLGDAPILNKSTEAHKLLWPIEKTMLNKDPALEQTPGYK
# What was measured:
# Assay in all cases: glycan array binding signal (z-score within array); higher = stronger binding
# Settings in all cases: glycan notation: IUPAC condensed, linker removed
# [1] = molecular target: GlcNAc(b1-3)Gal(b1-4)GlcNAc(b1-3)Gal(b1-4)GlcNAc(b1-3)GalNAc
# Method in brief: (§1)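 The Consortium for Functional Glycomics database supplied 3228 glycan arrays, of which those lacking an available protein sequence were dropped. The binding signal, a within-array Z-score, was averaged across arrays of the same protein sequence and across linkers. Negative scores can be read as non-binding.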
# [2] = molecular target: GlcNAc(b1-3)Gal(b1-4)GlcNAc(b1-3)GalNAc
# Method in brief: as §1
# [3] = molecular target: GlcNAc(b1-3)Gal(b1-4)GlcNAc(b1-3)[GlcNAc(b1-3)Gal(b1-4)GlcNAc(b1-3)]GalNAc
# Method in brief: as §1
# [4] = molecular target: GlcNAc(b1-3)Gal(b1-4)GlcNAc(b1-6)[Gal(b1-3)]GalNAc
# Method in brief: as §1
# [5] = molecular target: GlcNAc(b1-3)Gal(b1-4)GlcNAc(b1-6)[GlcNAc(b1-3)Gal(b1-3)]GalNAc
# Method in brief: as §1
# [6] = molecular target: GlcNAc(b1-3)Gal(b1-4)GlcNAc(b1-6)[GlcNAc(b1-3)]Gal(b1-4)GlcNAc
# Method in brief: as §1
# [7] = molecular target: GlcNAc(b1-3)GalNAc
# Method in brief: as §1
# [8] = molecular target: GlcNAc(b1-3)Man
# Method in brief: as §1
# [9] = molecular target: GlcNAc(b1-3)[GlcNAc(b1-4)][GlcNAc(b1-6)]GlcNAc
# Method in brief: as §1
# [10] = molecular target: GlcNAc(b1-3)[GlcNAc(b1-6)]Gal(b1-4)GlcNAc
# Method in brief: as §1
# [11] = molecular target: GlcNAc(b1-3)[GlcNAc(b1-6)]GalNAc
# Method in brief: as §1
# [12] = molecular target: GlcNAc(b1-4)Gal(b1-4)GlcNAc
# Method in brief: as §1
# [13] = molecular target: GlcNAc(b1-4)GlcNAc
# Method in brief: as §1
# [14] = molecular target: GlcNAc(b1-4)GlcNAc(b1-4)GlcNAc
# Method in brief: as §1
# [15] = molecular target: GlcNAc(b1-4)GlcNAc(b1-4)GlcNAc(b1-4)GlcNAc(b1-4)GlcNAc
# Method in brief: as §1
# [16] = molecular target: GlcNAc(b1-4)GlcNAc(b1-4)GlcNAc(b1-4)GlcNAc(b1-4)GlcNAc(b1-4)GlcNAc
# Method in brief: as §1
# [17] = molecular target: GlcNAc(b1-4)[GlcNAc(b1-6)]GalNAc
# Method in brief: as §1
# [18] = molecular target: GlcNAc(b1-6)Gal(b1-4)GlcNAc
# Method in brief: as §1
# [19] = molecular target: GlcNAc(b1-6)GalNAc
# Method in brief: as §1
# [20] = molecular target: GlcNAc6S(b1-3)Gal(b1-4)GlcNAc
# Method in brief: as §1
# [21] = molecular target: Kdn(a2-3)Gal(b1-3)GalNAc
# Method in brief: as §1
# [22] = molecular target: Kdn(a2-3)Gal(b1-3)GlcNAc
# Method in brief: as §1
# [23] = molecular target: Kdn(a2-3)Gal(b1-4)Glc
# Method in brief: as §1
# [24] = molecular target: Kdn(a2-3)Gal(b1-4)GlcNAc
# Method in brief: as §1
# [25] = molecular target: Kdn(a2-3)Gal(b1-4)[Fuc(a1-3)]GlcNAc
# Method in brief: as §1
# [26] = molecular target: Kdn(a2-6)Gal(b1-4)GlcNAc
# Method in brief: as §1
# [27] = molecular target: Man(a1-2)Man(a1-2)Man(a1-3)Man
# Method in brief: as §1
# [28] = molecular target: Man(a1-2)Man(a1-2)Man(a1-6)[Man(a1-3)]Man
# Method in brief: as §1
# [29] = molecular target: Man(a1-2)Man(a1-3)Man
# Method in brief: as §1
# [30] = molecular target: Man(a1-2)Man(a1-3)[Man(a1-2)Man(a1-6)]Man
# Method in brief: as §1
# [31] = molecular target: Man(a1-2)Man(a1-3)[Man(a1-2)Man(a1-6)]Man(a1-6)[Man(a1-2)Man(a1-2)Man(a1-3)]Man
# Method in brief: as §1
# [32] = molecular target: Man(a1-2)Man(a1-3)[Man(a1-2)Man(a1-6)]Man(a1-6)[Man(a1-2)Man(a1-2)Man(a1-3)]Man(b1-4)GlcNAc(b1-4)GlcNAc
# Method in brief: as §1
# [33] = molecular target: Man(a1-2)Man(a1-3)[Man(a1-6)]Man(a1-6)[Man(a1-2)Man(a1-3)]Man(b1-4)GlcNAc(b1-4)GlcNAc
# Method in brief: as §1
# [34] = molecular target: Man(a1-2)Man(a1-6)[Man(a1-3)]Man(a1-6)[Man(a1-2)Man(a1-2)Man(a1-3)]Man
# Method in brief: as §1
# [35] = molecular target: Man(a1-2)Man(a1-6)[Man(a1-3)]Man(a1-6)[Man(a1-2)Man(a1-2)Man(a1-3)]Man(b1-4)GlcNAc(b1-4)GlcNAc
# Method in brief: as §1
# [36] = molecular target: Man(a1-3)[Man(a1-6)]Man
# Method in brief: as §1
# [37] = molecular target: Man(a1-3)[Man(a1-6)]Man(a1-6)[Man(a1-2)Man(a1-3)]Man(b1-4)GlcNAc(b1-4)GlcNAc
# Method in brief: as §1
binder,measurement,setting,value
B1,glycan array binding signal (z-score),[1],-0.855
same,glycan array binding signal (z-score),[2],-1.13
same,glycan array binding signal (z-score),[3],-0.193
same,glycan array binding signal (z-score),[4],-0.484
same,glycan array binding signal (z-score),[5],0.43
same,glycan array binding signal (z-score),[6],-0.068
same,glycan array binding signal (z-score),[7],-0.301
same,glycan array binding signal (z-score),[8],-0.839
same,glycan array binding signal (z-score),[9],0.163
same,glycan array binding signal (z-score),[10],-0.19
same,glycan array binding signal (z-score),[11],0.042
same,glycan array binding signal (z-score),[12],1.65
same,glycan array binding signal (z-score),[13],-0.376
same,glycan array binding signal (z-score),[14],-1.02
same,glycan array binding signal (z-score),[15],1.25
same,glycan array binding signal (z-score),[16],-0.198
same,glycan array binding signal (z-score),[17],-0.626
same,glycan array binding signal (z-score),[18],-0.683
same,glycan array binding signal (z-score),[19],0.252
same,glycan array binding signal (z-score),[20],-0.071
same,glycan array binding signal (z-score),[21],0.601
same,glycan array binding signal (z-score),[22],0.185
same,glycan array binding signal (z-score),[23],-0.098
same,glycan array binding signal (z-score),[24],-0.847
same,glycan array binding signal (z-score),[25],-0.984
same,glycan array binding signal (z-score),[26],-0.612
same,glycan array binding signal (z-score),[27],0.241
same,glycan array binding signal (z-score),[28],-1.28
same,glycan array binding signal (z-score),[29],-0.285
same,glycan array binding signal (z-score),[30],-0.189
same,glycan array binding signal (z-score),[31],0.681
same,glycan array binding signal (z-score),[32],-0.508
same,glycan array binding signal (z-score),[33],-0.422
same,glycan array binding signal (z-score),[34],-0.643
same,glycan array binding signal (z-score),[35],-0.434
same,glycan array binding signal (z-score),[36],0.95
same,glycan array binding signal (z-score),[37],0.262

# A portion of the results above, as a working copy:
binder,measurement,setting,value
B1,glycan array binding signal (z-score),[15],1.25
same,glycan array binding signal (z-score),[16],-0.198

# From the supplement of paper PMC8728848
